Reference: patent US9382257B2, “Substituted pyrrolo[2,3-b]pyrazines as serine/threonine kinase inhibitors” (Genentech, Inc., priority 2002, dated 2016)
Structures were worked out from names or drawings and are uncertain.

Protein sequences, listed by entry. Tags and fused reporters are not part of them. Residues count along the entry.
UniProt P28482, 8-360 limits assumed: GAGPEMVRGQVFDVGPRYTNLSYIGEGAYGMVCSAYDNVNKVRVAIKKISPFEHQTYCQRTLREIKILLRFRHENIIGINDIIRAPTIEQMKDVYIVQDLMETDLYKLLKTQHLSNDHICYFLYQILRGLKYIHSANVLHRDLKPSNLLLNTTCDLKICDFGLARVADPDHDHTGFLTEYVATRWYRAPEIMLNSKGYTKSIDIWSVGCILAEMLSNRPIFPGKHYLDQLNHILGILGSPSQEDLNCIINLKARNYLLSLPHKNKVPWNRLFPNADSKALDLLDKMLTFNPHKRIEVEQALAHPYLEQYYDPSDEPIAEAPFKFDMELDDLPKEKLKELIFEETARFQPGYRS

Columns and labels:
[1] = target: human ERK-2 (Mitogen Activated Kinase 1) (Homo sapiens, UniProt P28482); assay: ERK-2 Enzymatic Assay (Example 2); settings: read-out: ERK Inhibition IC50, Omnia peptide S/T17, 25 μM ATP
[2] = system: PMA-stimulated P90RSK(Ser380) phosphorylation in HepG2 cells; assay: Cellular P90RSK(Ser380) Phosphorylation Assay (Example 4); settings: read-out: RSK Inhibition IC50, 1.5 hour compound incubation, PMA 100 ng/mL, normalized to GAPDH
Description: Cellular P90RSK(Ser380) Phosphorylation Assay
Inhibition of PMA-stimulated P90RSK(Ser380) phosphorylation was determined by the following in vitro cellular mechanistic assay, which comprises incubating cells with a compound for 1.5 hours and quantifying fluorescent pP90RSK(Ser380) signal on fixed cells and normalizing to GAPDH signal.
Materials and Methods: HepG2 cells were obtained from ATCC and grown in DMEM supplemented with 10% fetal bovine serum. Cells were plated in 96-well plates at 35,000 cells/well and allowed to attach overnight at 37° C./5% CO2. Diluted compounds were then added at a final concentration of 0.5% DMSO. After 1.5 hour compound incubation, cells were stimulated with the addition of PMA (phorbol 12-myristate 13-acetate) at a final concentration of 100 ng/mL; the PMA stimulation was a 30-minute incubation at 37° C./5% CO2. After the 30-minute PMA stimulation, cells were washed with PBS and fixed in 3.7% formaldehyde in PBS at room temperature for 15-20 minutes. This was followed by another wash in PBS and then permeabilization in 100% MeOH at room temperature for 10-15 minutes. […] Cells were then washed and analyzed for fluorescence at both wavelengths using the Odyssey Infrared Imaging System (LI-COR Biosciences). […]

Structure (SMILES): Cc1[nH]ncc1-c1cnc2[nH]cc(-c3cnn(Cc4ccc(OC(F)(F)F)cc4)c3)c2n1
- IC50 [1]: 0.0179 µM
- IC50 [2]: 0.0994 µM
